Values of other authors as cited in US4412986A, “Nifedipine-containing solid preparation composition” (Yamanouchi Pharmaceutical Co. Ltd., priority 1977, dated 1983).

COC(=O)C1=C(C)NC(C)=C(C(=O)OC)C1c1ccccc1[N+](=O)[O-] [nifedipine, 4-(2'-nitrophenyl)-2,6-dimethyl-3,5-dicarbomethoxy-1,4-dihydropyridine]
bioavailability by oral administration: low bioavailability
